Source: PubChem BioAssay AID1671190 (National Center for Advancing Translational Sciences (NCATS), 2021)
Hit rate of the full screen: of about 580,000 compounds, about 6,100 (1.1%) were called active. The inconclusive results got no clear call from the source; some entries with a clear call stand among them for comparison. The call rests on the fitted dose curve; in most records, active means well fitted inhibition curve with a large enough effect; inconclusive means small, poorly fitted or top-dose-only effect, or another doubt; inactive means no such curve, though single readings can be large or run the other way. Where the call is inconclusive, the potency comes from a doubtful curve fit.

Chains of the proteins cited; added tags and fusions are not shown. Lines headed by an entry give the natural chain unless they say otherwise; changes in a name come on top.
UniProt P18054: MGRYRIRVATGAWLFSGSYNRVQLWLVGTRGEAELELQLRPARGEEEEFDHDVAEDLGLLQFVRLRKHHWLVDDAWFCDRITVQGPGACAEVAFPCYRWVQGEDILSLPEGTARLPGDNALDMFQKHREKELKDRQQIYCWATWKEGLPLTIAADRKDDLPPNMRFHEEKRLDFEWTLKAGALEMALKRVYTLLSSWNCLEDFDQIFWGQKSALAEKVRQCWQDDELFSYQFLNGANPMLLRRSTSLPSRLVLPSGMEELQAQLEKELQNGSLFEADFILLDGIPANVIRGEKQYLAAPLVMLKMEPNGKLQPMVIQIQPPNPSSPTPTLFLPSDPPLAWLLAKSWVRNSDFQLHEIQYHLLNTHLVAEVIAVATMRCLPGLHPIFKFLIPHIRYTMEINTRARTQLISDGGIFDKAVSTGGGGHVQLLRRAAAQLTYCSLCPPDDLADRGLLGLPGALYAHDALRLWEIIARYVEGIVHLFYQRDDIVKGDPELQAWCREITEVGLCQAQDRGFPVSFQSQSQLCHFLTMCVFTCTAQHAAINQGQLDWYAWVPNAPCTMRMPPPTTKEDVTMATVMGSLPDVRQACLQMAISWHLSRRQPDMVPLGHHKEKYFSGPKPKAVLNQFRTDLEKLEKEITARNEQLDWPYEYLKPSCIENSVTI

molecular target: Polyunsaturated fatty acid lipoxygenase ALOX12 (Homo sapiens) (UniProt P18054); test: Primary qHTS assay for inhibitors of human arachidonate 12S-lipoxygenase (ALOX12): Round 2; details: purified 12hLO, xylenol orange hydroperoxide absorbance; activity change, negative = inhibition: at 108 µM (top of the series) unless noted
Summary of the method: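 Purified human 12hLO (150 nM final) in 25 mM Hepes, 0.01% Triton X-100, pH 7.0 was preincubated 15 min at room temperature with compound. Then 40 uM arachidonic acid was added, 30 min. Hydroperoxide was read by Fe-XO absorbance ratio 573/405 nm.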
On the % scale 0 is the no-effect control and ±100 the full control effect; potency means the concentration at half of the fitted maximal effect.

SMILES | activity change, negative = inhibition | Potency
O=C(Nc1cccc2cnccc12)c1cccc(S(=O)(=O)N2CCCCC2)c1 | inactive: -11% | 
OC(CC#CCN1CCCC1)(c1ccccc1)c1ccccc1 |  | inconclusive: 31.6 µM [inhibitor, single point]
Cc1cccnc1NC(=O)CN1C(=O)c2ccccc2S1(=O)=O |  | inconclusive: 50.1 µM [inhibitor, single point]
Oc1[nH]c2ccccc2c1N=Nc1ccccn1 |  | inconclusive: 44.7 µM [inhibitor, partial curve, poor fit]
COc1cc(-c2nnc(SCC(=O)N3CCCC3)o2)cc(OC)c1OC |  | inconclusive: 50.1 µM [inhibitor, partial curve, poor fit]
Cc1noc(C)c1C(=O)Nc1sc(C)c(-c2ccccc2)c1C#N | inactive: -5.21% | 
COc1cc(Cl)c(C)cc1NC(=O)COc1ccccc1[N+](=O)[O-] |  | inconclusive: 3.55 µM [inhibitor, full curve, poor fit]
Cc1ccc(-n2cnc3cc(NCc4cccs4)ccc32)cc1 |  | inconclusive: 126 µM [inhibitor, partial curve, poor fit]
NC(=O)c1cc(Cc2ccccc2)sc1NC(=O)c1ccncc1 |  | inconclusive: 39.8 µM [inhibitor, partial curve, poor fit]
O=C(NC1=CC(=O)c2ccccc2C1=O)c1ccccc1 |  | inconclusive: 3.55 µM [inhibitor, full curve, poor fit]
COc1cc2cc(CCCOC(=O)c3ccc(C(F)(F)F)cc3)oc(=O)c2cc1OC |  | inconclusive: 0.355 µM [inhibitor, full curve, poor fit]
O=NN(CCc1ccncc1)c1ccc(OCc2ccccc2)cc1 |  | inconclusive: 89.1 µM [inhibitor, partial curve, poor fit]
FC(F)(F)c1cccc(NC(=S)NCCC(c2ccccc2)c2ccccc2)c1 |  | inconclusive: 50.1 µM [inhibitor, partial curve, poor fit]
CNC(=O)[C@@H]1C[C@H](Oc2cccnc2)CN1C(=O)c1ccc(Cc2c(C)noc2C)o1 | inactive: 19.2% | 
c1ccc2nc(C3=NCCN3)ccc2c1 |  | inconclusive: 35.5 µM [inhibitor, single point]
CSCc1ccc(C(=O)Nc2ccc3c(c2)NC(=O)CS3)cc1 |  | inconclusive: 39.8 µM [inhibitor, partial curve, poor fit]
CC(CC(=O)Nc1ccc2c(c1)c(=O)n(C)n2-c1ccccc1F)c1ccccc1 (stereo not drawn) | inactive: -6.05% | 
CC1CN(C(=O)COC(=O)c2cc(=O)c3ccccc3o2)CC(C)O1 (stereo not drawn) |  | inconclusive: 8.91 µM [inhibitor, full curve]
Cn1ncc(N2CCC(NC(=O)C3CCCCC3)CC2)cc1=O | inactive: 15.4% | 
O=C(Cn1c(NCCO)nc2ccccc21)c1ccc(Cl)cc1Cl |  | inconclusive: 79.4 µM [inhibitor, partial curve, poor fit]
CCN(CC)c1ccc(C2C3CCCCC3(O)CCN2C(=O)c2cccs2)cc1 (stereo not drawn) |  | inconclusive: 10 µM [inhibitor, full curve, poor fit]
COC(=O)c1c(-c2ccc(C)cc2)csc1NC(=O)C1CC=CCC1C(=O)O (stereo not drawn) | inactive: 1.07% | 
COc1ccc(OCC(=O)Nc2cccc(-c3nc4cc(C)ccc4o3)c2)cc1 | inactive: -2.25% | 

SMILES | activity change, negative = inhibition | Potency
Cc1cc(S(=O)(=O)NC2CCCC2)ccc1F | inactive: -11.9% | 
Cc1cc(C(=O)NNc2ccc(Cl)cc2)no1 |  | inconclusive: 1.78 µM [inhibitor, full curve, poor fit]
Cc1cnccc1-c1ccc(NC(=O)NC2CC2)cc1 |  | inconclusive: 20 µM [inhibitor, full curve]
CC1=CC(=O)Nc2ccccc2S1 |  | inconclusive: 44.7 µM [inhibitor, partial curve, poor fit]
Cc1cc(C)c(C#N)c(SCC(=O)Nc2cc(C)on2)n1 | inactive: 9.53% | 
CNC(=S)Nc1ccc(OCc2ccccc2)cc1 |  | inconclusive: 56.2 µM [inhibitor, partial curve, poor fit]
CCc1ccc(CNC(=O)Cn2nc(-c3ccccc3)ccc2=O)cc1 | inactive: 0.0854% | 
COc1cc(C2c3cc4c(cc3OC(NNC(N)=S)C2C)OCO4)cc(OC)c1OC (stereo not drawn) |  | inconclusive: 0.891 µM [inhibitor, full curve, poor fit]
Cc1ccc(NN)c([N+](=O)[O-])c1 |  | inconclusive: 3.55 µM [inhibitor, full curve, poor fit]
COc1cccc(OC)c1OCCNC(C)(C)C |  | inconclusive: 0.398 µM [inhibitor, full curve, poor fit]
CCOC(=O)c1sc(C)c2c(=O)n(Cc3ccc(Cl)cc3)c(C)nc12 |  | inconclusive: 56.2 µM [inhibitor, partial curve, poor fit]
Cc1ccc(NC(=O)CN(C)S(=O)(=O)c2cccc3nsnc23)cc1 | inactive: 8.28% | 
Cc1ccc(NC(=O)c2ccc3nc(N4CCOCC4)sc3c2)c(Cl)c1 |  | inconclusive: 126 µM [inhibitor, single point]
Cc1cc(SCC(=O)NN2C(=O)NC3(CCCCC3)C2=O)nc2ccccc12 | inactive: -16% | 
CCN(CC)C(CNS(=O)(=O)c1ccc(Cl)cc1)c1ccccc1 (stereo not drawn) |  | inconclusive: 79.4 µM [inhibitor, partial curve, poor fit]
COc1ccc(/C=N/NC(=O)C(=O)/C=C2\NC3(CCCC3)Cc3ccccc32)cc1 | inactive: -2.89% | 
CCCCCCCCN1C(=O)[C@H](CC(=O)NCc2ccccc2)C[C@@]2(C(=O)OCC)CCCC=C12 |  | inconclusive: 50.1 µM [inhibitor, partial curve, poor fit]
O=[N+]([O-])c1cc(S(=O)(=O)Nc2cccc(Cl)c2)ccc1N/N=C/c1ccccc1C(F)(F)F |  | inconclusive: 31.6 µM [inhibitor, single point]
N#Cc1ccc(OCCOC(=O)c2ccco2)cc1 | inactive: -9.91% | 
O=C(Nc1ccno1)Nc1ccc(Cl)cc1Cl |  | inconclusive: 89.1 µM [inhibitor, partial curve, poor fit]
CN(C)c1ccc(CNC(=O)c2cnc(N3CCN(Cc4cccc(C(F)(F)F)c4)C3=O)o2)cc1 |  | inconclusive: 141 µM [inhibitor, single point]
Cc1ccc(-c2cc(=O)c3cc(NC(=O)c4ccco4)ccc3o2)cc1 |  | inconclusive: 100 µM [inhibitor, single point]
Cc1ccc(C(=O)c2c3ccc(C(F)(F)F)cc3[n+]([O-])n2CCCN)cc1 | inactive: -28.5% | 

An excerpt of these results, with tabs.
SMILES	activity change, negative = inhibition	Potency
Cc1ccc(NC(=O)CN(C)S(=O)(=O)c2cccc3nsnc23)cc1	inactive: 8.28%	
Cc1ccc(NC(=O)c2ccc3nc(N4CCOCC4)sc3c2)c(Cl)c1		inconclusive: 126 µM [inhibitor, single point]

(continued)

SMILES | activity change, negative = inhibition | Potency
CN1CC2(Cc3c1ccc1ccccc31)C(=O)OC(C)(C)OC2=O |  | inconclusive: 35.5 µM [inhibitor, partial curve, poor fit]
COc1ccc(CCN2CC(C(=O)N(C)Cc3cccnc3)CC2=O)cc1OC (stereo not drawn) |  | inconclusive: 70.8 µM [inhibitor, partial curve, poor fit]
CCCCC#Cc1ccccc1CC(=O)Nc1ccccc1 |  | inconclusive: 31.6 µM [inhibitor, partial curve, poor fit]
O=C(c1ccccc1C(F)(F)F)N1CCN(S(=O)(=O)c2ccccc2)CC1 | inactive: -5.98% | 
COCc1c(C(=O)NCC2COc3ccccc3O2)oc2ccccc12 (stereo not drawn) | inactive: 46.9% | 
O=C(OCc1cc(=O)n2c(n1)sc1ccccc12)c1cccc(O)c1 |  | inconclusive: 44.7 µM [inhibitor, partial curve, poor fit]
COc1cccc(Cn2c(=O)n(-c3cccc(Cl)c3C)c(=O)c3c4c(sc32)CN(C(C)=O)CC4)c1 |  | inconclusive: 141 µM [inhibitor, partial curve, poor fit]
COc1ccc(Cl)cc1N(CC(=O)Nc1ccc2c(c1)OCO2)S(C)(=O)=O |  | inconclusive: 89.1 µM [inhibitor, single point]
COCCN(C(=O)CSc1nc(N)cc(=O)[nH]1)c1c(N)n(Cc2ccccc2)c(=O)[nH]c1=O |  | inconclusive: 28.2 µM [inhibitor, single point]
Cc1cc(=O)oc2c(O)c(O)ccc12 | inactive: -29.8% | 
Cc1nnc(C)n1/N=C/c1cc(Br)ccc1O |  | inconclusive: 25.1 µM [inhibitor, partial curve, poor fit]
COC(=O)c1ccc(C)c(NC(=O)c2csc(COc3ccc(C)cc3)n2)c1 | inactive: -13.4% | 
CCCCCNC(=O)C(c1ccnc2ccccc12)n1c(=O)c(-c2ccccc2)nc2ccccc21 (stereo not drawn) | inactive: 0.281% | 
COCCNC(=O)C(c1ccccc1)N(C(=O)Cn1nnc2ccccc21)c1cccnc1 (stereo not drawn) | inactive: -2.9% | 
COc1ccc(-c2cc(C(=O)Nc3c(Cl)cc(Cl)cc3Cl)c3ccccc3n2)cc1OC | inactive: -26.6% | 
CC(C)[C@H](NC(=O)c1ccccc1Cl)C(=O)Nc1nc(-c2ccccn2)cs1 | inactive: 40.5% | 
O=C(CN1CCN(c2ccccc2F)CC1)c1ccc2c(c1)OCO2 |  | inconclusive: 44.7 µM [inhibitor, partial curve, poor fit]
COC(=O)CN1C(=O)S/C(=C/c2cc(C)n(C)c2C)C1=O |  | inconclusive: 50.1 µM [inhibitor, partial curve, poor fit]
COc1ccc(/C=C/c2nc(C#N)c(NCc3ccco3)o2)cc1OC | inactive: -65.5% | 
CC(=O)Nc1nc(CCC(C)C)cc2c1c(=O)oc1ccccc12 |  | inconclusive: 126 µM [inhibitor, partial curve, poor fit]
COc1cccc(CNCCSc2nnnn2C)c1OCc1ccc(Cl)cc1Cl |  | inconclusive: 50.1 µM [inhibitor, partial curve, poor fit]
CCC(C)c1ccc(NC(=O)COC(=O)c2cc(=O)c3ccccc3o2)cc1 (stereo not drawn) |  | inconclusive: 56.2 µM [inhibitor, partial curve, poor fit]
